# Test results reported in patent US7906486B2, “Method of treating or preventing tissue deterioration, injury or damage due to disease of mucosa” (SciClone Pharmaceuticals, Inc., priority 2007, dated 2011).
# Where “and” joins values, the source holds several entries; their conditions need not be identical. Equal entries are not always repeated. Further values from the same series stand in other lists.
# Assay: Weights and survival (Example 4, SCI-04)
# Format: in vivo, Syrian Golden Hamsters
# Set-up: unit not given here
# Details: individual animals
# Procedure: All animals were weighed daily and their survival recorded, in order to assess possible differences in animal weight among treatment groups as an indication for mucositis severity and/or possible toxicity resulting from the treatments.
# There were no significant differences in weight changes between study groups. The mean daily percent weight change data was evaluated. The saline treated control hamsters gained an average of 46.5% of their starting weight during the study. Hamsters in the group receiving SCV-07 at 10 μg/kg on days −1 to 20 gained an average of 51.3% of their starting weight during the study. Hamsters in the group receiving SCV-07 at 100 μg/kg on days −1 to 20 gained an average of 46.7% of their starting weight during the study. Hamsters in the group receiving SCV-07 at 1 mg/kg from day −1 to day 20 gained an average of 48.8% of their starting weight during the study. The significance of these differences was evaluated by calculating the area-under-the-curve (AUC) for the weight gain of each animal, and then comparing the different treatment groups using a One-Way ANOVA test.
compound,measurement,setting,value
"N[C@H](CCC(=O)N[C@@H](Cc1c[nH]c2ccccc12)C(=O)O)C(=O)O [SCV-07, γ-D-glutamyl-L-tryptophan]",Animal weight,"Group 2 (SCV-07 10 μg/kg, day −1 to day 20), day 0",72 and 78 and 90 and 92
same,Animal weight,"Group 2 (SCV-07 10 μg/kg, day −1 to day 20), day 1",70 and 75 and 87 and 90
same,Animal weight,"Group 2 (SCV-07 10 μg/kg, day −1 to day 20), day 2",90 and 95
same,Animal weight,"Group 2 (SCV-07 10 μg/kg, day −1 to day 20), day 3",81 and 91 and 96
same,Animal weight,"Group 2 (SCV-07 10 μg/kg, day −1 to day 20), day 4",76 and 85 and 93 and 99
same,Animal weight,"Group 2 (SCV-07 10 μg/kg, day −1 to day 20), day 5",81 and 85 and 94 and 100
same,Animal weight,"Group 2 (SCV-07 10 μg/kg, day −1 to day 20), day 6",79 and 89 and 94 and 102
same,Animal weight,"Group 2 (SCV-07 10 μg/kg, day −1 to day 20), day 7",89 and 97 and 105
same,Animal weight,"Group 2 (SCV-07 10 μg/kg, day −1 to day 20), day 8",98
same,Animal weight,"Group 2 (SCV-07 10 μg/kg, day −1 to day 20), day 9",92 and 98
same,Animal weight,"Group 2 (SCV-07 10 μg/kg, day −1 to day 20), day 10",94 and 100 and 110
same,Animal weight,"Group 2 (SCV-07 10 μg/kg, day −1 to day 20), day 11",87 and 95 and 100
same,Animal weight,"Group 2 (SCV-07 10 μg/kg, day −1 to day 20), day 12",88 and 94 and 97 and 113
same,Animal weight,"Group 2 (SCV-07 10 μg/kg, day −1 to day 20), day 13",88 and 95 and 114
same,Animal weight,"Group 2 (SCV-07 10 μg/kg, day −1 to day 20), day 14",90 and 96 and 114
same,Animal weight,"Group 2 (SCV-07 10 μg/kg, day −1 to day 20), day 15",99 and 132 and 117 and 109 and 93 and 112 and 90 and 97 and 98 and 115
same,Animal weight,"Group 2 (SCV-07 10 μg/kg, day −1 to day 20), day 16",100 and 132 and 119 and 109 and 92 and 112 and 90 and 96 and 99 and 117
same,Animal weight,"Group 2 (SCV-07 10 μg/kg, day −1 to day 20), day 17",103 (2×) and 136 and 123 and 112 and 96 (2×) and 117 and 100 and 121
same,Animal weight,"Group 2 (SCV-07 10 μg/kg, day −1 to day 20), day 18",103 and 137 and 125 and 113 and 98 and 117 and 97 and 102 and 104 and 122
same,Animal weight,"Group 2 (SCV-07 10 μg/kg, day −1 to day 20), day 19",105 and 138 and 125 and 113 and 100 and 118 and 99 and 101 and 103 and 123
same,Animal weight,"Group 2 (SCV-07 10 μg/kg, day −1 to day 20), day 20",104 (2×) and 137 and 127 and 115 and 100 and 118 and 101 and 109 and 123
same,Animal weight,"Group 2 (SCV-07 10 μg/kg, day −1 to day 20), day 21",108 and 141 and 130 and 117 and 103 and 121 and 105 (2×) and 106 and 127
same,Animal weight,"Group 2 (SCV-07 10 μg/kg, day −1 to day 20), day 22",110 and 144 and 133 and 120 and 104 (2×) and 122 and 108 and 107 and 131
same,Animal weight,"Group 2 (SCV-07 10 μg/kg, day −1 to day 20), day 23",110 and 143 and 133 and 121 and 104 and 123 and 106 and 108 (2×) and 129
same,Animal weight,"Group 2 (SCV-07 10 μg/kg, day −1 to day 20), day 24",114 and 148 and 139 and 123 and 105 and 126 and 109 and 111 (2×) and 134
same,Animal weight,"Group 2 (SCV-07 10 μg/kg, day −1 to day 20), day 25",115 and 150 and 139 and 124 and 108 and 126 and 113 (2×) and 112 and 136
same,Animal weight,"Group 2 (SCV-07 10 μg/kg, day −1 to day 20), day 26",117 and 151 and 140 and 126 and 109 and 129 and 114 and 116 and 115 and 137
same,Animal weight,"Group 2 (SCV-07 10 μg/kg, day −1 to day 20), day 27",117 and 152 and 145 and 127 and 110 and 128 and 114 (2×) and 113 and 138
same,Animal weight,"Group 2 (SCV-07 10 μg/kg, day −1 to day 20), day 28",119 and 156 and 146 and 130 and 113 and 132 and 117 and 116 and 115 and 143
same,Animal weight,"Group 2 (SCV-07 10 μg/kg, day −1 to day 20), day −1",74 and 80 and 91 and 92
same,Animal weight,"Group 3 (SCV-07 100 μg/kg, day −1 to day 20), day 0",84 and 80 and 86 and 102 and 76 and 91 and 103 and 96 and 82 and 78
same,Animal weight,"Group 3 (SCV-07 100 μg/kg, day −1 to day 20), day 1",87 and 75 and 83 and 99 and 73 and 88 and 102 and 91 and 84 and 74
same,Animal weight,"Group 3 (SCV-07 100 μg/kg, day −1 to day 20), day 2",90 (3×) and 77 and 86 and 102 and 76 (2×) and 100 and 87
same,Animal weight,"Group 3 (SCV-07 100 μg/kg, day −1 to day 20), day 3",94 and 81 and 88 and 106 and 82 and 91 (2×) and 108 and 101 and 78
same,Animal weight,"Group 3 (SCV-07 100 μg/kg, day −1 to day 20), day 4",98 and 84 and 91 (2×) and 109 and 83 and 92 and 110 and 114 and 79
same,Animal weight,"Group 3 (SCV-07 100 μg/kg, day −1 to day 20), day 5",99 and 86 and 93 and 113 and 84 and 95 and 115 and 105 and 94 and 81
same,Animal weight,"Group 3 (SCV-07 100 μg/kg, day −1 to day 20), day 6",98 and 88 and 96 and 112 and 84 and 95 and 118 and 106 and 94 and 83
same,Animal weight,"Group 3 (SCV-07 100 μg/kg, day −1 to day 20), day 7",100 and 87 (2×) and 95 and 116 and 96 and 119 and 107 and 97 and 86
same,Animal weight,"Group 3 (SCV-07 100 μg/kg, day −1 to day 20), day 8",103 and 90 (2×) and 98 (3×) and 118 and 120 and 108 and 88
same,Animal weight,"Group 3 (SCV-07 100 μg/kg, day −1 to day 20), day 9",106 and 91 and 96 and 118 and 89 and 98 and 120 and 111 and 97 and 88
same,Animal weight,"Group 3 (SCV-07 100 μg/kg, day −1 to day 20), day 10",111 and 95 (2×) and 101 and 123 and 100 and 124 and 113 and 103 and 92
same,Animal weight,"Group 3 (SCV-07 100 μg/kg, day −1 to day 20), day 11",109 and 95 and 100 (2×) and 123 and 94 (2×) and 124 and 114 and 101
same,Animal weight,"Group 3 (SCV-07 100 μg/kg, day −1 to day 20), day 12",111 and 98 and 102 (2×) and 126 and 92 and 101 and 127 and 117 and 93
same,Animal weight,"Group 3 (SCV-07 100 μg/kg, day −1 to day 20), day 13",111 and 96 and 102 (2×) and 127 and 92 and 100 and 125 and 116 and 94
same,Animal weight,"Group 3 (SCV-07 100 μg/kg, day −1 to day 20), day 14",110 and 97 and 103 and 130 and 95 and 100 and 128 and 116 and 101 and 94
